Some results were stated once for a whole list of compounds, not compound by compound.
Test: liquid to aerosol transfer efficiency of an acid (e.g. ion chromatography)
Assay type: physicochemical
Conditions: ratio of mass fraction of acid in aerosolized formulation to that in liquid formulation

| SMILES | liquid to aerosol transfer efficiency [%] |
| --- | --- |
| O=C(O)CO [glycolic acid] | ≥ 50 |
| CC(O)C(=O)O (stereo not shown) [lactic acid] | ≥ 50 |
| O=C(O)C(=O)O [oxalic acid] | ≥ 50 |
| CC(=O)C(=O)O [pyruvic acid] | ≥ 50 |

From patent publication US20150313275A1, “LIQUID AEROSOL FORMULATION OF AN ELECTRONIC SMOKING ARTICLE” (Altria Client Services, Inc., priority 2014, published 2015)
